Assay: general procedure: Fmoc solid-phase peptide synthesis; TentaGel TGR or Sieber amide resin (0.2 mmol/g or 0.5 mmol/g); TBTU/DIEA
Conditions: conjugation step

Substance | conjugation yield [%]
3rd Generation Insulin-N^εB29-Mpa-Dendrimer (80) | 38
1st Generation Insulin-N^εB29-Mpa-Dendrimer (78) | 43
2nd Generation Insulin-N^εB29-Mpa-Dendrimer (79) | 40

Source: patent publication US8450097 (dated 2013)
